Values from PubChem BioAssay AID504764 (Drosophila RNAi Screening Center, 2011).
Assay: 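Genome-wide screen for regulators of Notch-driven gene expression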 (primary screen). Cell system: Drosophila Kc167 cells. Reagents: long dsRNA against Drosophila genes. Timing: about 5 days (4 days dsRNA, then 24 h after transfection). Treatment: transfection of constitutively active membrane-tethered Notch lacking the extracellular domain, read 24 h later. Measurement: 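Firefly luciferase from an E(spl)m3 reporter with active Notch, plus control-promoter and uninduced reporter wells for normalisation; unnormalised counts, duplicate wells a and b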. Reading the numbers: induced reporter light, run 1, well a and induced reporter light, run 1, well b: higher = more light from the Notch target reporter with active Notch; control promoter light, run 1, well a and control promoter light, run 1, well b: higher = more light from the viral control promoter (cell number, transfection, viability); uninduced reporter light, run 1, well a: higher = more light from the Notch target reporter without active Notch. Rule for the call: 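Hit if the duplicate-averaged log2 ratio of induced to control-promoter light gives a plate-wise z beyond ±2, or induced to uninduced beyond ±1.8; weak-control or discordant-duplicate wells dropped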. Meaning of the calls: active = modifier hit (raised or lowered Notch signal); inactive = not a hit.
The screen tested about 22,000 reagents; shown is an unselected part of those with a known target gene and a result. Of all reagents, 403 (1.9%) got an active call. 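Unnormalised raw counts per well; ratio z-scores behind the hit calls and whether each hit raises or lowers signal are not deposited.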 A plus sign joins genes that one reagent is predicted to hit. Not stated in the record: the amount of reagent.

no.	Gene	amplicon	induced reporter light, run 1, well a	induced reporter light, run 1, well b	control promoter light, run 1, well a	control promoter light, run 1, well b	uninduced reporter light, run 1, well a	Call
1	FRG1 (GeneID 40228)	DRSC10648	1.58e5	1.14e5	1.14e5	1.05e5	5715	inactive
2	CG14451 (GeneID 40488)	DRSC11708	94215	90010	97605	72005	5270	inactive
3	hll (GeneID 34822)	DRSC01944	2.09e5	2.57e5	1.93e5	2.05e5	16175	inactive
4	CG32091 (GeneID 39307)	DRSC10141	1.65e5	1.12e5	1.55e5	10285	12015	inactive
5	CG32091 (GeneID 39307)	DRSC10820	1.61e5	1.29e5	2.00e5	1.27e5	8285	inactive
6	Ir48c (GeneID 36257)	DRSC06154	1.02e5	96190	1.48e5	1.25e5	9092	inactive
7	CG14907 + Mettl4	DRSC15026	2.37e5	2.46e5	1.98e5	2.20e5	17440	inactive
8	CG14907 + Mettl4	DRSC15027	2.90e5	2.75e5	2.46e5	2.72e5	22415	inactive
9	l(3)L1231 (GeneID 41776)	DRSC16323	1.58e5	1.34e5	1.14e5	99030	13110	inactive
10	SMC5 (GeneID 326215)	DRSC11849	1.05e5	1.13e5	83680	72115	8850	inactive
11	CG33060 (GeneID 39807)	DRSC09939	1.63e5	1.54e5	2.33e5	1.72e5	7580	inactive
12	Chrac-16 (GeneID 32166)	DRSC20343	96380	85720	1.39e5	1.67e5	9350	inactive
13	PPP1R15 (GeneID 37820)	DRSC04422	1.31e5	1.48e5	1.42e5	1.33e5	11580	inactive
14	CG7024 (GeneID 31407)	DRSC18414	1.16e5	1.06e5	2.16e5	2.07e5	10295	inactive
15	CG15083 (GeneID 37175)	DRSC06514	1.30e5	89030	96190	1.14e5	8975	inactive
16	toc (GeneID 33526)	DRSC00169	78740	80880	99065	1.17e5	6355	inactive
17	toc (GeneID 33526)	DRSC00171	1.03e5	97365	1.27e5	1.40e5	8575	inactive
18	toc (GeneID 33526)	DRSC00842	1.87e5	2.10e5	2.17e5	2.06e5	15200	inactive
19	CG6800 (GeneID 42562)	DRSC16119	1.80e5	1.68e5	1.94e5	2.17e5	11885	inactive
20	CG13481 (GeneID 39579)	DRSC10023	2.12e5	1.86e5	2.93e5	2.54e5	9080	inactive
21	dpr9 (GeneID 2768670)	DRSC14534	1.54e5	1.62e5	1.40e5	1.40e5	13082	inactive
22	dpr9 (GeneID 2768670)	DRSC14985	2.14e5	2.11e5	1.49e5	1.57e5	16370	inactive
23	dpr9 (GeneID 2768670)	DRSC14986	2.12e5	1.87e5	1.72e5	1.74e5	14750	inactive
24	CG12729 (GeneID 31515)	DRSC17884	1.71e5	1.57e5	3.47e5	2.72e5	11585	inactive
25	Rsph4a (GeneID 37831)	DRSC04338	2.21e5	2.18e5	1.99e5	1.89e5	14680	inactive
26	CG14443 (GeneID 31595)	DRSC17936	1.67e5	1.61e5	2.60e5	3.07e5	12435	inactive
27	CG1309 (GeneID 38519)	DRSC08302	1.43e5	1.33e5	93065	47585	9225	inactive
28	CG5466 (GeneID 42444)	DRSC15808	10635	9532	12520	10550	2220	inactive
29	CAH3 (GeneID 31804)	DRSC17776	1.12e5	1.04e5	2.14e5	2.20e5	9265	inactive
30	Ir7g (GeneID 31694)	DRSC18008	1.93e5	1.62e5	2.85e5	2.86e5	10915	inactive
31	CG17078 (GeneID 33195)	DRSC00484	99405	1.02e5	96900	64640	7995	inactive
32	nullo (GeneID 31652)	DRSC18807	1.40e5	1.25e5	2.23e5	2.10e5	10660	inactive
33	RpS13 (GeneID 34149)	DRSC03419	25035	26500	25060	32150	1488	inactive
34	CG1789 (GeneID 31812)	DRSC18140	2.20e5	1.96e5	2.56e5	2.09e5	13180	inactive
35	CG4815 (GeneID 43360)	DRSC15653	1.52e5	1.23e5	1.77e5	1.81e5	14428	inactive
36	CG31041 (GeneID 318567)	DRSC13951	1.47e5	1.38e5	1.37e5	1.66e5	12970	inactive
37	CG6610 (GeneID 38693)	DRSC10674	2.61e5	2.57e5	2.46e5	2.97e5	11145	inactive
38	Boot (GeneID 35919)	DRSC06412	1.93e5	1.66e5	2.39e5	2.04e5	16882	inactive
39	mRpL44 (GeneID 40656)	DRSC12306	1.11e5	1.32e5	67750	71685	7555	inactive
40	Sap47 (GeneID 41938)	DRSC16850	2.50e5	2.88e5	3.80e5	4.30e5	17305	active
41	CG34176 (GeneID 5740391)	DRSC00435	1.15e5	99390	1.40e5	1.09e5	7415	inactive
42	CG33333 (GeneID 2768672)	DRSC13233	69125	47475	71270	63915	7600	inactive
43	Tgt (GeneID 33307)	DRSC00672	72325	76165	77405	69965	5010	inactive
44	IKKepsilon (GeneID 35329)	DRSC03550	85005	62485	63875	54870	4185	inactive
45	TbCMF46 (GeneID 34318)	DRSC02221	1.46e5	1.94e5	80120	1.22e5	19640	inactive
46	CG13449 (GeneID 39695)	DRSC09996	1.79e5	1.94e5	2.46e5	1.93e5	9170	inactive
47	pch2 (GeneID 41013)	DRSC14368	72535	82065	81360	65370	5995	inactive
48	CG34011 (GeneID 3885619)	DRSC00888	1.23e5	1.15e5	1.63e5	1.40e5	9200	inactive
49	Fic (GeneID 33897)	DRSC03247	1.59e5	1.59e5	1.74e5	1.57e5	15560	inactive
50	CG34224 (GeneID 5740585)	DRSC05269	1.98e5	1.59e5	2.24e5	2.69e5	18565	inactive

Only “control promoter light, run 1, well b” (6 entries from above):
nullo (GeneID 31652) [DRSC18807] = 2.10e5
RpS13 (GeneID 34149) [DRSC03419] = 32150
CG1789 (GeneID 31812) [DRSC18140] = 2.09e5
CG4815 (GeneID 43360) [DRSC15653] = 1.81e5
CG31041 (GeneID 318567) [DRSC13951] = 1.66e5
CG6610 (GeneID 38693) [DRSC10674] = 2.97e5
